The supplement of paper PMC3334620
Whole data set: some 33,000 sequences, median “E-score (-0.5 to 0.5)” near -0.016, cut for the highest 2% near 0.3. Some of the results follow.

target: T1, Yer184c (UniProt P39961); experiment: PBM E-score (8-mer binding enrichment) (E-score (-0.5 to 0.5)); higher = stronger / more preferred TF binding; conditions: protein concentration: 100 nM; construct: GST-full length
T1 sequence: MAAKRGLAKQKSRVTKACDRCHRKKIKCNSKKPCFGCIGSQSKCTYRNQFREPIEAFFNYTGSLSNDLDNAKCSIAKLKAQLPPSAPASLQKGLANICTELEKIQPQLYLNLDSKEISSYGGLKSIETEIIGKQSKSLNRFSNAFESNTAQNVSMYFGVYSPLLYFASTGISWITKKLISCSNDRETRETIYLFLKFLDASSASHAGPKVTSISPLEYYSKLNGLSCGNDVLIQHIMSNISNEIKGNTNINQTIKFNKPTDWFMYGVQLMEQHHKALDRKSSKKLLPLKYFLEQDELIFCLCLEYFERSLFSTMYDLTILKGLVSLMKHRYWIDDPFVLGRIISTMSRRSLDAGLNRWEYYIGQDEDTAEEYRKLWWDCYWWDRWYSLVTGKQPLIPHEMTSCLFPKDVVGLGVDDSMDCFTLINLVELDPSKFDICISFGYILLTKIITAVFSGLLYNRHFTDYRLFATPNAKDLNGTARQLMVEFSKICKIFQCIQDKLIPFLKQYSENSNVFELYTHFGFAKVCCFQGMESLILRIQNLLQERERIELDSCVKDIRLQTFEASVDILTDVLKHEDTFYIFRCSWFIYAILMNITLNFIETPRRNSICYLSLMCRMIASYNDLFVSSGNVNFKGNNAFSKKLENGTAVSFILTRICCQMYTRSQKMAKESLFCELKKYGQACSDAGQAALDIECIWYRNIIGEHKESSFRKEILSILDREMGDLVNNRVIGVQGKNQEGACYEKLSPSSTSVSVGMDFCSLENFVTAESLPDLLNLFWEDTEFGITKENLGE
Procedure, shortened: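 Masliner-normalised scans of fluorescent anti-GST signal were the basis for scoring. That signal came from GST-tagged yeast transcription factors applied at about 100-200 nM to double-stranded universal all-10-mer Agilent arrays on fresh or once-stripped slides. Each ungapped eight-base word, pooled with its reverse complement, received an E-score from the Universal PBM Analysis Suite.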

Sequence	PBM E-score
CTTCCAAG	-0.101
GTTGCATA	-0.0108
GCAGGCCC	-0.246
CTTCAACC	0.0921
ATATGGAC	-0.0784
CCCATTCC	-0.258
AAACTCCC	-0.0832
AAGATTAG	0.072
TGAACTCA	0.0189
GCCCTGAA	0.0123
AATCGCTA	-0.0813
CCTAAAGC	-0.138
ACCCAACG	-0.0231
GGGAGTAC	-0.23
ATCCATAC	-0.0215
ATGAAATA	0.227
GGGTAGAA	-0.0545
AGCGCCCG	0.113
ACACCGTC	-0.0164
CTAGTAGA	0.185
CTTGGGAA	0.0588
CACGGCCC	-0.0419
AATAGAAC	0.134
CCGCGCCA	-0.0968
CAGTTGAC	-0.0401

Quoted at random: five entries already listed, in no set order.
Sequence	PBM E-score
GGGTAGAA	-0.0545
AATCGCTA	-0.0813
CTAGTAGA	0.185
GCAGGCCC	-0.246
CAGTTGAC	-0.0401

Additional entries follow.

Sequence	PBM E-score
GCGTTGAA	0.12
ATTTTCGA	0.121
GATGTCCC	-0.0325
GCCTTAGC	0.0575
GTGGTCTA	-0.208
GTCAGGAC	-0.129
AACTAGAA	0.0516
CCTAACCC	-0.332
ACGATGCT	-0.241
CAATGGTC	-0.036
CAAATCCG	0.194
TCAGTGCA	-0.126
AAAGGTTC	0.028
AAGGGAAG	-0.194
CACAACAG	-0.207
CTTGGTCC	0.0693
AGAATACG	0.0301
GAACACAC	0.00219
CAGCAGGA	-0.153
AACCGGGA	0.188
AGAAGTTC	-0.0981
CTATACGC	-0.103
CTGCTTCC	-0.197
GTCGAAAA	0.108
ATAATGGC	-0.0646

Sequence	PBM E-score
CAACCTAG	-0.138
AGCCTGGG	-0.0738
AATGCTCC	0.0347
CAGTCCCA	-0.171
ATCCGGGG	0.262
AATTAACA	0.212
TGGCGACA	-0.164
TAAAACTA	0.146
CACTGCCA	0.0082
AAGGTGTA	-0.105
CCATGCAA	0.0458
AAAGCATT	0.121
ACAACTCC	0.00874
GCGACTAC	-0.158
ACTGGCTG	-0.0911
CGATCTAA	0.0794
GGGGGACC	-0.381
AACCCAGT	-0.129
AGAATGAT	0.144
AAGTACTC	-0.147
CAATAGTA	0.0725
AAATCCAG	0.0647
GTTGTCCA	-0.058
GTTCGTAA	0.0976
AGCTGTGA	-0.0495

Sequence	PBM E-score
CTTTAGTA	-0.0339
GCTTAACA	0.0553
CGGCCCCA	-0.282
ATCGAGCC	0.113
TCGGTGCA	0.0881
CTCACATA	-0.226
TAGTGGAA	-0.038
TGAAGGCA	-0.0712
CATGCATA	-0.0575
CGGCGATC	0.312
CCGGCAGA	0.265
GCGCCGGA	0.355
GACCAGGC	-0.315
ACGCTTAT	-0.192
AGATTAGC	0.00851
GTGCAGAA	0.0359
AGAGACAG	-0.128
GAGTCCTA	-0.205
ATAGGGTA	-0.0831
CTTGCGAC	-0.0558
AACTCCAC	0.0381
AAGGTCAA	-0.199
GCAGAGCA	0.0245
ATTTGGAA	0.124
TAATTCCA	0.0901

Sequence	PBM E-score
CTAGGATC	-0.109
CATAGGCA	-0.237
CGCCTAGA	-0.154
GGGAAGTA	0.0585
GGTCCTAA	0.117
TCCCCGAA	0.12
CGCCCACG	-0.0869
CCGCTGTA	0.0352
CAATCGCA	-0.0595
ACGACTCA	-0.152
GTCACTTA	0.122
TTAATTAA	-0.041
ATGGGCCG	0.0185
GACGCATC	0.0192
ATTCGTCA	-0.0398
ACCCTGAC	-0.208
GGATCTGA	0.00733
AGTATCTA	-0.00909
AGTGTGCG	-0.0932
CCTTAGGC	-0.3
ATGGTGTC	-0.218
ACGATTCC	0.0125
CAATGGGA	-0.0498
ATGGTATC	-0.0563
GTTATTGA	0.151

Sequence	PBM E-score
TAGGTATA	0.0269
AAATATGC	0.0299
GAATGGAC	-0.067
CCGTATTA	0.257
AAATCCCA	-0.0495
CCAACCGC	-0.0476
GGTGGCTA	-0.219
TCCGCCCA	-0.181
AAGATTAT	0.106
TAATACAA	0.205
CCGGGTCC	0.132
GATTATTA	0.185
AATTTAGA	0.142
GTTGCAGA	0.0349
TTCTACAA	0.0858
TCCCTTAA	-0.166
GCGTTCAA	0.0758
CTTAAATC	0.142
TCAAGTAA	0.0762
ATAAGCCG	0.243
CTCGTTCA	-0.0318
CCAGTTAC	-0.331
ATCCCAGG	-0.103
CCTAAAAA	0.105
TGGCAAAA	0.114

Sequence	PBM E-score
ACAATTAT	0.209
ATTTGTGG	0.131
ACCAGACT	-0.0238
ACGAAGTG	-0.0865
GAAGAGCC	0.181
AGTCCGTA	0.114
CCCCTATC	-0.21
ACTCGCAC	-0.111
ACCGCACG	-0.0556
ATATAGTG	0.116
CCCGTCGG	0.0504
GTTCACTA	0.0701
CAATTGCG	-0.0249
AATGTTCC	0.112
AGGTCATC	-0.152
GCCCCAAC	-0.052
ACAGCCTA	0.124
ATCAACTG	-0.0529
AAGAGGTC	-0.12
GCCGTTAA	0.169
ACATAGCG	-0.0851
CTTTGCAC	0.0301

As entered above.
PBM E-score with CAATTGCG is entered as -0.0249
PBM E-score with GCCTTAGC is entered as 0.0575
PBM E-score with ACTCGCAC is entered as -0.111
